Results published in the supplement of paper PMC5836539.
± gives the standard deviation of the averaged measurements. Single values are uncertain here, since repeats match poorly.

Chains of the proteins cited; added tags and fusions are not shown. Lines headed by an entry give the natural chain unless they say otherwise; changes in a name come on top.
UniProt P13861, whole entry, looked up: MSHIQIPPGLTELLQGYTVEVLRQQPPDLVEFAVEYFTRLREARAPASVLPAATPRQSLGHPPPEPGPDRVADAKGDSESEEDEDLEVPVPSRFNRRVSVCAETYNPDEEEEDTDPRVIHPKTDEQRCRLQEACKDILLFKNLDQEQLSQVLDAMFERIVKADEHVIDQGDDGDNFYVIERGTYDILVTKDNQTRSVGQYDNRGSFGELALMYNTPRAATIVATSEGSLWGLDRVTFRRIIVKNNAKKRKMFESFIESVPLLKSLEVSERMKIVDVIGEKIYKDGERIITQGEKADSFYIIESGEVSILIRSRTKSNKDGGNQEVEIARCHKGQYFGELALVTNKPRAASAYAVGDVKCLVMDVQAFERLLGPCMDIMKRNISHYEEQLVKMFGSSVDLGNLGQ
UniProt Q13523: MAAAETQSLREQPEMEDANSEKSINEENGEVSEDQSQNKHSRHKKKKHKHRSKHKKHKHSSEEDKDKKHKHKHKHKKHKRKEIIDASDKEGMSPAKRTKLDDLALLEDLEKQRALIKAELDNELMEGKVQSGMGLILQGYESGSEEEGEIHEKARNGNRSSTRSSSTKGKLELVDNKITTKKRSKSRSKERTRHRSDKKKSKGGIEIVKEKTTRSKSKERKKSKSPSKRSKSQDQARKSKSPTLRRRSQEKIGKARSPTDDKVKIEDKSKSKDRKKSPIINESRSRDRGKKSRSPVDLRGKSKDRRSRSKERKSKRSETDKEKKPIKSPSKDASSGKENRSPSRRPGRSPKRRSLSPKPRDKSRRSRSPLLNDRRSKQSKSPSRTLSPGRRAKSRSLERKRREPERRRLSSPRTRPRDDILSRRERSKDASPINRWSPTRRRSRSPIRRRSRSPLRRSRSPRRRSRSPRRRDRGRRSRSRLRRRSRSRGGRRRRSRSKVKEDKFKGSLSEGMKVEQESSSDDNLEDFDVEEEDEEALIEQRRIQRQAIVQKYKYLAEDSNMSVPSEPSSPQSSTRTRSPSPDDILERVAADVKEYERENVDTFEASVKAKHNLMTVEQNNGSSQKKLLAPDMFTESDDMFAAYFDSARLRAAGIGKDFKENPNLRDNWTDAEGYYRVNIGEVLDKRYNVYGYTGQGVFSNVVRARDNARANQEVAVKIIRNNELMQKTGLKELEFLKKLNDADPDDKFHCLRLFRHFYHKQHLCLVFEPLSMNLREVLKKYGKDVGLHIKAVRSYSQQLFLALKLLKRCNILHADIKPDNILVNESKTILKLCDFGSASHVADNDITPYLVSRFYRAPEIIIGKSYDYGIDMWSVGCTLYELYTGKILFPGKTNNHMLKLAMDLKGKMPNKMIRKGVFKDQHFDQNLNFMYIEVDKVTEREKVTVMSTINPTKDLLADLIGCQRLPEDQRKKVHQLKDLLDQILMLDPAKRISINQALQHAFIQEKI
UniProt O75475: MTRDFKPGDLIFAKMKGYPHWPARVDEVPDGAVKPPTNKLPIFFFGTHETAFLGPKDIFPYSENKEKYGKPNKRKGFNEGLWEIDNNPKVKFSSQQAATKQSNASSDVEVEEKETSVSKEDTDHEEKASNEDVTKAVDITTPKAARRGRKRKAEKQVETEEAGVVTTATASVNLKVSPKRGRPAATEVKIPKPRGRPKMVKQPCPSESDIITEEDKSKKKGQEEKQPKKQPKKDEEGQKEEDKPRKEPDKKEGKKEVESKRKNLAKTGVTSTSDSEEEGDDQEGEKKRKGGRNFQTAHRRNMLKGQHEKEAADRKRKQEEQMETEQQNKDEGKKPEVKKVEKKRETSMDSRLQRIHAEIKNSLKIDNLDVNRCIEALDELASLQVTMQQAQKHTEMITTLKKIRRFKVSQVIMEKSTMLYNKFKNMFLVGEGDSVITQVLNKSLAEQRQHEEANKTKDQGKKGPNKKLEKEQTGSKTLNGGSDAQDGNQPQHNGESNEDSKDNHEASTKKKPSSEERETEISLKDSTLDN
UniProt Q13200: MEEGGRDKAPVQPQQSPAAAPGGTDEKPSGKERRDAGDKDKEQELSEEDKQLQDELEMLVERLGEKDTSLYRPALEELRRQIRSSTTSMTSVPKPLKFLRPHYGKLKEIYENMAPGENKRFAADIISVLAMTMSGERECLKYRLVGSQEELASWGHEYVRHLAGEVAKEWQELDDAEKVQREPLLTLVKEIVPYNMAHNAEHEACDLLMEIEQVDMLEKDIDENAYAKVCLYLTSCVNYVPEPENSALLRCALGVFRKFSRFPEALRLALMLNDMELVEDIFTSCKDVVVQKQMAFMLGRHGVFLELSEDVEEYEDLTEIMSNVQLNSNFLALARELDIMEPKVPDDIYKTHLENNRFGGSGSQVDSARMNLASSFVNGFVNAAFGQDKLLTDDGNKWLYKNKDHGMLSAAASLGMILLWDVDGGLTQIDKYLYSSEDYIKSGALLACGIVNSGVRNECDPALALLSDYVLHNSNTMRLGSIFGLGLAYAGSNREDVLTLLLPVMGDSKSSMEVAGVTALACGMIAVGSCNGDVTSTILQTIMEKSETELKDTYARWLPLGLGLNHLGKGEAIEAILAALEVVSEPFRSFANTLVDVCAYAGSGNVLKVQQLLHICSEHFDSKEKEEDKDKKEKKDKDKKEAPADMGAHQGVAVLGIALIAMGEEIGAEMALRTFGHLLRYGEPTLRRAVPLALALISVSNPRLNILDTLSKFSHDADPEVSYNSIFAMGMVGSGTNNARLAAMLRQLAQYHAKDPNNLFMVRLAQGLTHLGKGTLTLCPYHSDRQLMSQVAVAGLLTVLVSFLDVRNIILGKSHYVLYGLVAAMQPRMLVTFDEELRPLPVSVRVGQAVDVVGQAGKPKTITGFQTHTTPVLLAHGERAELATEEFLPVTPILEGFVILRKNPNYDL
UniProt Q92530: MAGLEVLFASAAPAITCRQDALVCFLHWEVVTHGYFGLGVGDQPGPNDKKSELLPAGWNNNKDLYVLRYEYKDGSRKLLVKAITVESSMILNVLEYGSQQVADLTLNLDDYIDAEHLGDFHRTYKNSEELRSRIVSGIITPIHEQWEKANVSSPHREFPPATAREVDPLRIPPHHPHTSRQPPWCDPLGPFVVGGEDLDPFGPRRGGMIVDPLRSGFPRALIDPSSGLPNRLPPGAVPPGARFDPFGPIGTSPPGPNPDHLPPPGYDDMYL
UniProt Q96QR8: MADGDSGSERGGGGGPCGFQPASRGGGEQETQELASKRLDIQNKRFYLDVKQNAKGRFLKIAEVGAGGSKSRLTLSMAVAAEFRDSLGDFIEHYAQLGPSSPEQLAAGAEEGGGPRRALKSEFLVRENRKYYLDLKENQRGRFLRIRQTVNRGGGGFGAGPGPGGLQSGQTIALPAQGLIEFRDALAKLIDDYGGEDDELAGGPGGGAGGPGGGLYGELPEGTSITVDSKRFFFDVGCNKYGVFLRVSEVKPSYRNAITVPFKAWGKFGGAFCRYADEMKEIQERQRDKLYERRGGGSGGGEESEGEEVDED
UniProt P49023, whole entry, looked up: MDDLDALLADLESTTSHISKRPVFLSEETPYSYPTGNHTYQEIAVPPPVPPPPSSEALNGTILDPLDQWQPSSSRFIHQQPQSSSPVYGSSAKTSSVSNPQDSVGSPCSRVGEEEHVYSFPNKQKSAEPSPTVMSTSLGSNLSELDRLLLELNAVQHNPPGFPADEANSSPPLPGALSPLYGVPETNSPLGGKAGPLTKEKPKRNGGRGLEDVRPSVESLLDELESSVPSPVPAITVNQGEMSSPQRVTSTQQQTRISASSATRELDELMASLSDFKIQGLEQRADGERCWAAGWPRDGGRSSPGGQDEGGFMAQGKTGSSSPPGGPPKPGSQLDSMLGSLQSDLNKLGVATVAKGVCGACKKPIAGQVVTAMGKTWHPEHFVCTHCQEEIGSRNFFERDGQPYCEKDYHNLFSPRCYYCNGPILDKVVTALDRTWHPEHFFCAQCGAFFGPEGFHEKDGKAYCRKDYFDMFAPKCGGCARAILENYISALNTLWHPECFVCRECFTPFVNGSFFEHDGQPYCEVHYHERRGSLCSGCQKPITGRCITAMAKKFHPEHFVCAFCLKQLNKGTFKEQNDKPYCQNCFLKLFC
UniProt Q9BXF6: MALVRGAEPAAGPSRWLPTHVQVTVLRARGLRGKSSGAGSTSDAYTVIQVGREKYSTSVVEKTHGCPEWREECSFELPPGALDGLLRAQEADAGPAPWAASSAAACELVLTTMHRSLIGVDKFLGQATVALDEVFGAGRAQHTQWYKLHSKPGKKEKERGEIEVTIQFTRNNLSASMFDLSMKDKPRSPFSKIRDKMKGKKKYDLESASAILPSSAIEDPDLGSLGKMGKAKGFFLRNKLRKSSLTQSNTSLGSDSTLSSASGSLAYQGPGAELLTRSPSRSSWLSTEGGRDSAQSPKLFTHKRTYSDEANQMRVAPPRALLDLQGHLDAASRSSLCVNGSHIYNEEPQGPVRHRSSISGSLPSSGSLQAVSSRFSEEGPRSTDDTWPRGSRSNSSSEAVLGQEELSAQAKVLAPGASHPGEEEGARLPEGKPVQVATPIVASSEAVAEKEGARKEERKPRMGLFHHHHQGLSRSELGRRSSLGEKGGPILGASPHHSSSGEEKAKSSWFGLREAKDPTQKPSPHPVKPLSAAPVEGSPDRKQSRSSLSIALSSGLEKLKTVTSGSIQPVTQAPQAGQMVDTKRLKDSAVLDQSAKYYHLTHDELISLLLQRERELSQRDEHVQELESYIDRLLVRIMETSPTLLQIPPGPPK
UniProt Q15276: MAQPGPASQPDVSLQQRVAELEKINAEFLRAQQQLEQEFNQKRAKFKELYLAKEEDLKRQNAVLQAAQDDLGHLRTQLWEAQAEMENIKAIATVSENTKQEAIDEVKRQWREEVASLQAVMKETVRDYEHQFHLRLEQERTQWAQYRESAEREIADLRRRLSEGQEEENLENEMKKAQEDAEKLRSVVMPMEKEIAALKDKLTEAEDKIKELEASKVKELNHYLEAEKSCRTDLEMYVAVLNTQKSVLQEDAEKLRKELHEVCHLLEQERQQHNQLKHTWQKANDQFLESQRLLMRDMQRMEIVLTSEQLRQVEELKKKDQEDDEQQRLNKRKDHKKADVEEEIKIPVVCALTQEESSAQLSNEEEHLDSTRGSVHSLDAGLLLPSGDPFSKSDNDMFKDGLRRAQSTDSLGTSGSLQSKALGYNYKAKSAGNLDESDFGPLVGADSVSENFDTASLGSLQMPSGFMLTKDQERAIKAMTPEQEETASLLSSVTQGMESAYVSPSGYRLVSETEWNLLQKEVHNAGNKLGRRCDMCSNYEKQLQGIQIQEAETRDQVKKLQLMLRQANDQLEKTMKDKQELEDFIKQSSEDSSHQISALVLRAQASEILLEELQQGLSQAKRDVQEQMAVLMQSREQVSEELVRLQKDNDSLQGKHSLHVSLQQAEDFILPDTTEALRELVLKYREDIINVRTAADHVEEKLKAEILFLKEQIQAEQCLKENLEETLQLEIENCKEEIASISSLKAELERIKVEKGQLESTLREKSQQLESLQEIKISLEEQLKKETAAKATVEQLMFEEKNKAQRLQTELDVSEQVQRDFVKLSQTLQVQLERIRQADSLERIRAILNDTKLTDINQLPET
UniProt Q99638: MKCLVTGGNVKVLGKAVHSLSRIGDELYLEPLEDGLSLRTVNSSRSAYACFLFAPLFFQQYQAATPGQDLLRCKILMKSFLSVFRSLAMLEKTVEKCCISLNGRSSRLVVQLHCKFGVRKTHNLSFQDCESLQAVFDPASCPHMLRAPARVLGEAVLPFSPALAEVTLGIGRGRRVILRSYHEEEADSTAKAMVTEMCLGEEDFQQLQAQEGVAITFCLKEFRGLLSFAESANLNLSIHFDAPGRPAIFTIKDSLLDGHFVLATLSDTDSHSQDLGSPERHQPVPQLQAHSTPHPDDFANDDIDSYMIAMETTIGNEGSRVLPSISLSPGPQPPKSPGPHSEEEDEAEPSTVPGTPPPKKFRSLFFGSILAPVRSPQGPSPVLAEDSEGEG
UniProt O60216: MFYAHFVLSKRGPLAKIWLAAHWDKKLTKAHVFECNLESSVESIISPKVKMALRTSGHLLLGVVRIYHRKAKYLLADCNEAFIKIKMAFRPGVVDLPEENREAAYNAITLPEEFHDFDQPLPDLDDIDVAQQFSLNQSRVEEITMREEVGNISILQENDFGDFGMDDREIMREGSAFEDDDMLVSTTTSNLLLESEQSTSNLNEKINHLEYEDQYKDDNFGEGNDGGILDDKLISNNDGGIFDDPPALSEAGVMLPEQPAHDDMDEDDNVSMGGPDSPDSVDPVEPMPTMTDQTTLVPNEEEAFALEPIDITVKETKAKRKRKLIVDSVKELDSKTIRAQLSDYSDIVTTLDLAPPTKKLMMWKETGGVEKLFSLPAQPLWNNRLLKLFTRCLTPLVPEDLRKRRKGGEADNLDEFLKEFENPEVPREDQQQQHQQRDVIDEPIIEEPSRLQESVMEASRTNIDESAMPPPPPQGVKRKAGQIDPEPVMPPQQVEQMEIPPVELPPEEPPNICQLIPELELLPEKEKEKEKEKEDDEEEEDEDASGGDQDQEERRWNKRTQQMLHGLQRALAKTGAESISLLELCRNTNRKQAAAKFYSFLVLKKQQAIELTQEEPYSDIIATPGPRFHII

compound: CC[C@@H](C)Nc1cc(C(=O)N[C@H]2C[C@H]3CC[C@@H](C2)N3c2ccc(C(=O)C3CC3)cn2)c(C)cc1C(N)=O [XL888]; experiment: phosphopeptide melting temperature shift (XL888 minus DMSO); higher = stabilised by drug treatment; conditions: 100 µM; treatment time 2 h; layout: intact cells; SK-Mel 28
Description: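 Phospho-TPP in intact SK-Mel 28 cells treated with 100 uM XL888 or DMSO for 2 h, heated at 10 temperatures (37-67 C) for 3 min, soluble fraction TMT10plex-labelled and TiO2 phospho-enriched. Melting curves were fitted per phosphopeptide; the value is the melting point difference (drug minus vehicle) in each of two biological replicates.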

Row | Target | phosphopeptide melting temperature shift [°C]
1 | PRKAR2A phosphosite_78 (phosphosite position: 78) (UniProt P13861) | 1.12 ± 0.6
2 | PRKAR2A phosphosite_80 (phosphosite position: 80) (UniProt P13861) | 0.791 ± 1.4
3 | PRMT3 phosphosite_25 (phosphosite position: 25) (UniProt O60678) | 1.72 ± 1.4
4 | PRMT3 phosphosite_27 (phosphosite position: 27) (UniProt O60678) | 1.94 ± 1.4
5 | PRPF4B phosphosite_257 (phosphosite position: 257) (UniProt Q13523) | -1.54
6 | PRPF4B phosphosite_292 (phosphosite position: 292) (UniProt Q13523) | -0.245
7 | PRPF4B phosphosite_294 (phosphosite position: 294) (UniProt Q13523) | -0.245
8 | PRPF4B phosphosite_431 (phosphosite position: 431) (UniProt Q13523) | -0.0353
9 | PRPF4B phosphosite_437 (phosphosite position: 437) (UniProt Q13523) | -0.0353
10 | PRPSAP1 phosphosite_215 (phosphosite position: 215) (UniProt Q14558) | -0.763 ± 0.77
11 | PSIP1 phosphosite_106 (phosphosite position: 106) (UniProt O75475) | -0.544
12 | PSIP1 phosphosite_129 (phosphosite position: 129) (UniProt O75475) | -0.568
13 | PSMD2 phosphosite_16 (phosphosite position: 16) (UniProt Q13200) | 0.0951
14 | PSMF1 phosphosite_152 (phosphosite position: 152) (UniProt Q92530) | 0.497 ± 1.9
15 | PSMF1 phosphosite_153 (phosphosite position: 153) (UniProt Q92530) | -1.08 ± 2.1
16 | PTPN14 phosphosite_314 (phosphosite position: 314) (UniProt Q15678) | 1.92
17 | PTPN14 phosphosite_594 (phosphosite position: 594) (UniProt Q15678) | 1.63 ± 1.1
18 | PURB phosphosite_101 (phosphosite position: 101) (UniProt Q96QR8) | -0.262

Row | Target | phosphopeptide melting temperature shift [°C]
19 | PURB phosphosite_304 (phosphosite position: 304) (UniProt Q96QR8) | 4.55
20 | PWP1 phosphosite_50 (phosphosite position: 50) (UniProt Q13610) | 1.91 ± 0.96
21 | PWP1 phosphosite_485 (phosphosite position: 485) (UniProt Q13610) | 2.82
22 | PXN phosphosite_85 (phosphosite position: 85) (UniProt P49023) | 4.18 ± 1.3
23 | PXN phosphosite_137 (phosphosite position: 137) (UniProt P49023) | 2.6
24 | QRICH1 phosphosite_345 (phosphosite position: 345) (UniProt Q2TAL8) | 1
25 | RAB11FIP5 phosphosite_307 (phosphosite position: 307) (UniProt Q9BXF6) | 2.9
26 | RAB11FIP5 phosphosite_538 (phosphosite position: 538) (UniProt Q9BXF6) | 0.834
27 | RABEP1 phosphosite_377 (phosphosite position: 377) (UniProt Q15276) | 3.25
28 | RAD9A phosphosite_272 (phosphosite position: 272) (UniProt Q99638) | -2.27
29 | RAD9A phosphosite_277 (phosphosite position: 277) (UniProt Q99638) | 1.25 ± 1
30 | RAD9A phosphosite_375 (phosphosite position: 375) (UniProt Q99638) | 3.47
31 | RAD9A phosphosite_387 (phosphosite position: 387) (UniProt Q99638) | 3.47
32 | RAD21 phosphosite_545 (phosphosite position: 545) (UniProt O60216) | -1.95
33 | RAF1 phosphosite_295 (phosphosite position: 295) (UniProt P04049) | 0.845 ± 0.56
34 | RAF1 phosphosite_301 (phosphosite position: 301) (UniProt P04049) | 2.79 ± 0.99
35 | RAF1 phosphosite_621 (phosphosite position: 621) (UniProt P04049) | 1.54 ± 2.8

Looked up one by one from the entries so far:
Row | Target | phosphopeptide melting temperature shift [°C]
31 | RAD9A phosphosite_387 (phosphosite position: 387) (UniProt Q99638) | 3.47
21 | PWP1 phosphosite_485 (phosphosite position: 485) (UniProt Q13610) | 2.82
30 | RAD9A phosphosite_375 (phosphosite position: 375) (UniProt Q99638) | 3.47
